A short description of this experiment: qHTS Assay for Lipid Storage Modulators in Drosophila S3 Cells.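 For cell number change: cells counted by Cell Tracker Red CMTPX staining in the red channel.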 Conditions: BODIPY lipid droplet fluorescence, 18-24 h; for cell number change: measured here: cell count max response, cells fed with added oleic acid. Summed up:
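Drosophila S3 cells got compounds at several concentrations plus oleic acid (400 uM solution). Laser-scanning cytometry with 488 nm excitation read lipid droplets at 500-530 nm and cells at 575-640 nm. Percent activity was relative to 20 uM Triacsin C.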

Setting [1] is: measured here: lipid fluorescence (Fed channel) AC50, cells fed with added oleic acid.
[2] abbreviates: measured here: cell number channel AC50, cells fed with added oleic acid.

Each structure is given as a SMILES string. The list shows a part of the results. These are further read-outs of the screen, such as a control signal, another cell line or another target. No call is given for them. Compounds called inactive in the main read-out are mostly missing here. Words in brackets tell the shape of the fitted curve; partial curves, single points and poor fits give uncertain potencies.

The AC50 is the concentration giving half of the maximal activity seen. A low value points to activity at low concentration.

With `COc1cc(Cl)c(CN2CCCC(CO)(Cc3ccccc3F)C2)cc1OC` (configuration not stated), the cell number change was -9.34%.
As for `COc1ccc(CCNC(=O)CNC(=O)c2ccc3c(c2)OCO3)cc1OC`, the cell number change was determined as 21.4%. Also, the AC50 under setting [1] was 20.6 µM [rising, partial curve].
On to `c1ccc(Nc2nc(N3CCNCC3)nc(N3CCOCC3)n2)cc1`, for which the cell number change turned out to be 24.9%. For the same compound, under setting [1], the AC50 is 9.2 µM [rising, partial curve, poor fit].
Turning to `OCCCNCc1ccc(N(c2ccccc2)c2ccccc2)cc1`, the cell number change amounted to 24.8%.
As for `Cc1cc2c(cc1S(=O)(=O)Nc1ccc(OC(F)(F)F)cc1)OCC(=O)N2`, the cell number change is -2.06%. Under setting [1], the AC50 is 29.1 µM [falling, single point].
Turning to `O=C(COC(=O)c1cccnc1Cl)NCC1CCCO1` (configuration not stated), the cell number change was -15.3%.
As for `Cc1ccc(S(=O)(=O)Nc2nc(C)c(C)s2)cc1`, the cell number change was -4.31%. The AC50 under setting [1] was 29.1 µM [rising, single point].
With `C=CCn1c(SCC(=O)NCc2ccco2)nnc1C1CCCCC1`, the AC50 under setting [2] was 0.13 µM [rising, full curve, poor fit].
`O=C(Oc1ccccc1/C=C\C(=O)c1cc2ccccc2o1)c1ccccc1`: under setting [1], the AC50 was 18.4 µM [falling, partial curve].
Take `O=C(NCCc1ccc(Cl)cc1)C1CCC(CNc2c(N3CCCCC3)c(=O)c2=O)CC1` (configuration not stated): the cell number change was determined as 20.4%. Also, under setting [1], the AC50 is 5.8 µM [rising, partial curve].
For the compound `C=CCSc1ncccc1C(=O)NCCc1ccccc1`, the cell number change was determined as 1.42%. Besides, under setting [1], the AC50 is 29.1 µM [falling, single point].
Turning to `CCCCCN=Cc1c(C)[nH]n(-c2nc3ccccc3s2)c1=O`, the cell number change came to 7.82%. Further, the AC50 under setting [1] is 3.26 µM [rising, single point].
Take `COc1ccc(/C=N/Nc2nc(-c3ccc(Cl)cc3)cc(C(F)(F)F)n2)c(OC)c1`: the cell number change was 13%. Besides, under setting [1], the AC50 was 0.058 µM [rising, full curve, poor fit].
Take `COC(=O)c1ccc(N=Nc2c(C)[nH]n(-c3ccccc3)c2=O)cc1`: the cell number change was -50.3%. In addition, the AC50 under setting [2] is 18.4 µM [falling, partial curve, poor fit].
With `Cc1ccccc1-c1nnnn1C1CCS(=O)(=O)C1` (configuration not stated), the cell number change was -26.2%.
Consider `N#Cc1ccccc1NC(=O)C(=O)NCC1CCCN1S(=O)(=O)c1cccs1` (configuration not stated), for which the cell number change was 29.4%. Under setting [2], the AC50 is 4.61 µM [rising, full curve, poor fit].
In the case of `COc1ccc(C2=NN(C(=O)c3ccco3)C(c3cc4ccccc4nc3Cl)C2)cc1` (configuration not stated), the cell number change is 10%. Moreover, under setting [1], the AC50 was 0.411 µM [rising, full curve].
On to `C#CCOCCOCCOCCNc1nc(N2CCN(C(=O)[C@H](CCCCN)n3cc([C@@H](N)CC(C)C)nn3)CC2)nc(N2CCN(C(=O)[C@H](Cc3ccc(O)cc3)n3cc([C@@H](N)CC(C)C)nn3)CC2)n1`, for which the cell number change was -11.6%. Moreover, the AC50 under setting [2] is 0.0651 µM [falling, full curve, poor fit]. Besides, the AC50 under setting [1] is 3.66 µM [falling, full curve, poor fit].
As for `CCOc1ccc(-c2c(C)n([O-])c3c([n+]2=O)CCCC3)cc1`, the cell number change was -12.3%. For the same compound, the AC50 under setting [1] was 1.3 µM [falling, full curve, poor fit].
For the compound `COc1ccc2nc(Nc3nc(CSc4nnnn4-c4ccccc4)cc(=O)[nH]3)nc(C)c2c1`, the cell number change amounted to 56.8%. For the same compound, under setting [2], the AC50 is 1.3 µM [rising, full curve]. In addition, under setting [1], the AC50 was 0.411 µM [rising, full curve].
With `CC(C)c1nc2ccc(Br)cn2c1NC1CCCC1`, the cell number change was -21.3%. Further, under setting [2], the AC50 is 2.59 µM [falling, single point]. Also, the AC50 under setting [1] is 0.291 µM [falling, partial curve, poor fit].
`CCn1c(SCC(=O)NCc2ccco2)nnc1-c1ccncc1`: the cell number change is -11.5%. Besides, the AC50 under setting [1] is 0.82 µM [falling, full curve, poor fit].
Turning to `COc1ccc(N(C(=O)c2snc(C(N)=O)c2N)C(C(=O)NC2CCCC2)c2ccc3ncccc3c2)cc1` (configuration not stated), the cell number change was -11.1%. Also, the AC50 under setting [2] is 4.61 µM [falling, single point].
For the compound `O=C(NNC(=O)c1ccccc1C(=O)O)c1ccc(O)cc1`, the cell number change was determined as 0.551%.
Turning to `COC1CCN(C(=O)C2CCC(=O)N(CCc3cccc(F)c3)C2)CC1` (configuration not stated), the cell number change turned out to be 17.9%. Also, under setting [2], the AC50 is 6.51 µM [rising, single point]. The AC50 under setting [1] is 0.082 µM [rising, full curve].
Take `O=C(O)c1cc(-c2ccc(Cl)cc2)n(-c2ccccc2)n1`: the cell number change is -54.9%. In addition, the AC50 under setting [2] was 14.6 µM [falling, partial curve, poor fit]. For the same compound, the AC50 under setting [1] was 4.11 µM [falling, single point].
In the case of `CC(C(=O)Nc1cc(C(F)(F)F)ccc1N1CCOCC1)N1C(=O)C2CC=CCC2C1=O` (configuration not stated), under setting [1], the AC50 is 0.731 µM [falling, full curve, poor fit].
For the compound `Cc1ccc(-c2nc(SCC(=O)Nc3cc(S(=O)(=O)N4CCCCC4)ccc3Cl)n[nH]2)cc1`, the cell number change worked out at 19.6%. Moreover, the half-maximal activity concentration (AC50) under setting [1] is 8.2 µM [rising, partial curve, poor fit].
As to `CNC(=S)N/N=C/c1ccco1`, the cell number change is 13.1%. Moreover, under setting [1], the AC50 was 0.82 µM [rising, full curve, poor fit].
Regarding `Cc1csc(=O)n1CCC(=O)OCc1nnc(-c2ccccc2)o1`, the cell number change amounted to 26.5%. Moreover, the AC50 under setting [2] was 1.64 µM [rising, full curve, poor fit].
Consider `OCCCN1c2ccccc2Nc2nnc(-c3ccccc3)cc21`, for which the cell number change is 12.2%. Besides, the AC50 under setting [1] was 29.1 µM [falling, single point].
`COc1ccc(OC)c2nc(-c3ccncc3)ccc12`: the cell number change is 13.2%. Besides, under setting [1], the AC50 is 5.8 µM [rising, full curve, poor fit].
For the compound `Cc1ccc(C(=O)OCCN(C)Cc2ccccc2)cc1`, the cell number change is 5.37%. In addition, the AC50 under setting [1] was 0.92 µM [rising, full curve, poor fit].
As to `Cc1ccc(NC(=S)NNC(=O)c2cn(C)nc2C)cc1`, the cell number change is 2.96%. Besides, the AC50 under setting [1] was 0.517 µM [rising, full curve, poor fit].
Consider `CCCCc1nnc(SCCSc2nnc(CCCC)n2N)n1N`, for which the cell number change is -9.06%. For the same compound, the half-maximal activity concentration (AC50) under setting [1] is 0.92 µM [falling, partial curve].
`COCCn1c(SCc2nc3cc(OC)c(OC)cc3c(=O)[nH]2)nnc1-c1ccncc1`: the cell number change turned out to be 30.2%. Moreover, the AC50 under setting [2] was 16.4 µM [rising, single point].
With `CO/N=C\Cc1oc(=O)c(NC(=O)c2ccccc2)cc1C(=O)OC`, the AC50 is 5.8 µM [rising, single point] under setting [2] and 0.231 µM [rising, full curve, poor fit] under setting [1].
For the compound `CCOC(=O)Nc1nnc(-c2ccc(OC)c(OC)c2)s1`, the cell number change is 2.43%. Also, the AC50 under setting [1] is 6.51 µM [rising, single point].
Regarding `CC(C)c1ccc(OCC(=O)Nc2ccc(S(=O)(=O)Nc3ccccn3)cc2)cc1`, the cell number change was -29.5%.
Turning to `CCCCSc1nc2c(c(C(F)(F)F)c1C#N)CCC2`, the cell number change amounted to 20.6%. For the same compound, the AC50 under setting [1] is 0.58 µM [falling, single point].
Consider `CC(=O)c1cccc(Oc2cc(NN3CCCCC3)c([N+](=O)[O-])cc2[N+](=O)[O-])c1`, for which the cell number change amounted to 12.3%. Also, the AC50 under setting [2] is 0.082 µM [rising, full curve, poor fit].
With `O=C1CC(N2CCN(c3ccccc3)CC2)C(=O)N1c1ccc(Cl)cc1` (configuration not stated), the cell number change is 4.74%. The AC50 under setting [1] is 29.1 µM [rising, single point].
On to `COc1ccccc1NC(=O)c1ccccc1NS(=O)(=O)N1CCCC1`, for which the cell number change turned out to be 3.17%. Further, under setting [1], the AC50 is 0.651 µM [rising, full curve].
As for `CC(C)(C)NC(=O)c1ccc(COCC(F)(F)F)o1`, the cell number change was 33.6%. Moreover, under setting [2], the AC50 was 23.1 µM [rising, single point]. Moreover, the AC50 under setting [1] was 1.84 µM [falling, partial curve].
`Cc1cc(SCC(=O)N/N=C/c2ccc(O)c(O)c2O)c(C)cc1Br`: the cell number change was -2.88%. Besides, the AC50 under setting [1] was 3.26 µM [rising, single point].
In the case of `CCN1C(=O)N(CC)C2C1N(CO)C(=O)N2CO` (configuration not stated), the AC50 under setting [1] is 0.58 µM [rising, single point].
Turning to `CCOC(=O)c1ccc(NC(=O)c2cc(S(=O)(=O)N3CCOCC3)cn2C)cc1`, the cell number change amounted to 7.2%.
As to `COc1ccccc1NS(=O)(=O)c1cccc(C(=O)N/N=C(\C)c2cccnc2)c1`, the cell number change is 6.64%. In addition, the AC50 under setting [1] was 0.291 µM [rising, partial curve, poor fit].
For `O=C1NN(c2cccc(Br)c2)C(=O)/C1=C\c1ccc(O)cc1`, the cell number change was -24.3%. Moreover, under setting [2], the concentration at half-maximal activity (AC50) is 4.11 µM [falling, full curve, poor fit]. Further, under setting [1], the AC50 was 6.51 µM [falling, partial curve, poor fit].
As for `CN1CCN(CCOCCOc2ccc(Br)cc2Cl)CC1`, the cell number change is 11.1%. Further, the AC50 under setting [1] is 0.058 µM [rising, full curve, poor fit].
Regarding `Cc1ccccc1Nc1nc(-c2cccnc2)cs1`, the cell number change came to 2.49%. The AC50 under setting [1] is 0.58 µM [rising, single point].
For the compound `Cc1cc(C)c(S(=O)(=O)N2CCC(C(=O)NCc3ccco3)CC2)c(C)c1`, the cell number change was 2.8%. Also, under setting [2], the AC50 was 0.00461 µM [falling, full curve, poor fit]. Moreover, the half-maximal activity concentration (AC50) under setting [1] is 0.82 µM [falling, full curve].
For the compound `O=C(CSc1nnc(NC(=O)c2ccc(F)cc2F)s1)NC1CCCC1`, the cell number change amounted to 9.72%.
For `Cc1c(C(=O)NCCN2CCOC2=O)oc2c(F)cccc12`, the cell number change was determined as 17.2%. Under setting [1], the AC50 is 29.1 µM [falling, single point].
`COc1cc2ccccc2cc1-c1nnc(COc2ccccc2)o1`: the cell number change was -55.1%. In addition, the AC50 under setting [2] was 25.9 µM [falling, single point]. The AC50 under setting [1] was 16.4 µM [falling, single point].
Turning to `O=C1C2C3C=CC(C4CC34)C2C(=O)N1c1cccc2ccccc12` (configuration not stated), the cell number change is -25%. Further, under setting [1], the AC50 was 29.1 µM [falling, single point].
As to `CC(C)c1ccc(S(=O)(=O)Nc2ccc(O)c(Sc3ncn[nH]3)c2)cc1`, the cell number change is -18.4%.
Take `Cc1c(Cl)c([N+](=O)[O-])nn1CC(=O)Nc1ccc2c(c1)OCO2`: the cell number change is -40.1%. Moreover, the AC50 under setting [2] is 4.61 µM [falling, single point]. Under setting [1], the AC50 is 29.1 µM [falling, single point].
Regarding `CC(Oc1ccc2c(-c3ccccc3)cc(=O)oc2c1)C(=O)NCCCn1ccnc1` (configuration not stated), the cell number change is -1.16%.
Take `Cc1cc(C)c(NC(=O)COC(=O)C2CCC2)c(Cl)c1`: the cell number change stood at 15.1%. Further, the AC50 under setting [2] was 0.00411 µM [rising, full curve, poor fit]. For the same compound, the AC50 under setting [1] is 0.0517 µM [rising, full curve, poor fit].
